Literature values in patent US20240325474A1 (priority 2023, published 2024).
At least one compound was matched to its structure with a doubt left.

System: SARS-COV-2
Details: Calu-3 cells

CCC(CC)COC(=O)[C@H](C)N[P@](=O)(OC[C@H]1O[C@@](C#N)(c2ccc3c(N)ncnn23)[C@H](O)[C@@H]1O)Oc1ccccc1 [Remdesivir]
IC50: 86 nM
